Assay results as given in publication PMC10863331.
Residue numbers refer to the chain shown, from its start. No constants are given. Whether binding was seen depends on the method and setting. Binding seen in cells or lysates may run through a third protein. Some entries that bind do so weakly or less than the wild type. Sequences can lack the tags named with a protein.

Protein sequences, listed by entry. Tags and fused reporters are not part of them.
UniProt P84025: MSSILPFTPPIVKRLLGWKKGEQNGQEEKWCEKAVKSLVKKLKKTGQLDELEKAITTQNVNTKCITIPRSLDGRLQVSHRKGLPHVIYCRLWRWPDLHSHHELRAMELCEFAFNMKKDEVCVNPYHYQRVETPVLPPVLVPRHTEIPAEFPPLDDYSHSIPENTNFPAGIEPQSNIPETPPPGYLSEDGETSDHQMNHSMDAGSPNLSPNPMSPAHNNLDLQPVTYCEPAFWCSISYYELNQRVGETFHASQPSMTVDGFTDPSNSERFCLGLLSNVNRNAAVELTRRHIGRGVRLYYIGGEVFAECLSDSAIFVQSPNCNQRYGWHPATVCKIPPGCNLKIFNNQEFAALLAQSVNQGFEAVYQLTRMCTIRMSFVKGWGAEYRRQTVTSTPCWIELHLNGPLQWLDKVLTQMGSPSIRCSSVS

Columns and labels:
Assay in all cases: co-IP; HEK293T cells co-transfected with Flag-Smad3 and HA-ALK7 (wild type or variant) for 2 days; 1 mg whole cell lysate with 1 μg rabbit HA antibody at RT for 2 h, Protein A/G magnetic beads at RT for 1 h, three washes with IP Lysis/Wash buffer; immunoblotting
HA-tagged ALK7 I195T = target: T1, HA-tagged ALK7 I195T (UniProt Q8NER5)
T1 sequence: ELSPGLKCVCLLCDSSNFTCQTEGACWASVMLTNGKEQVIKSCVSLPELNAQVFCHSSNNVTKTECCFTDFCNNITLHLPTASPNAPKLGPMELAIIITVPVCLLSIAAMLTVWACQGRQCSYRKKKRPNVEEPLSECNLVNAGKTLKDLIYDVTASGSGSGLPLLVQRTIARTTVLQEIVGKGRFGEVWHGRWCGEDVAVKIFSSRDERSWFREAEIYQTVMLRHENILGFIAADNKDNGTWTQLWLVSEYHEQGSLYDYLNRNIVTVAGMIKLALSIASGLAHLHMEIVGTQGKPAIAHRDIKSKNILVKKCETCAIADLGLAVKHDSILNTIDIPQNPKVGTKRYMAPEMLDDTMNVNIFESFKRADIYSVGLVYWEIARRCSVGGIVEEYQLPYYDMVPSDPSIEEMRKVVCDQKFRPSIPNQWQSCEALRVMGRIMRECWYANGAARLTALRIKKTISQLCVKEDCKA

HA-tagged wild type ALK7 = target: T2, HA-tagged wild type ALK7 (UniProt Q8NER5)
T2 sequence: T1 sequence with T175I

HA-tagged ALK7 I482V = target: T3, HA-tagged ALK7 I482V (UniProt Q8NER5)
T3 sequence: T1 sequence with T175I, I462V

HA-tagged ALK7 N150H = target: T4, HA-tagged ALK7 N150H (UniProt Q8NER5)
T4 sequence: T1 sequence with N130H, T175I

Measured: binding

Flag-tagged Smad3 (from UniProt P84025 1-425)
binds: HA-tagged ALK7 I195T | HA-tagged wild type ALK7 | HA-tagged ALK7 I482V | HA-tagged ALK7 N150H
